Some of these results come from one statement about several compounds together.
Experiments:
Type in all cases: biochemical
[1] = test system: Monkey Ang-2FD-hFc binding to hTie-2-mFc; experiment: ELISA blocking of monkey Ang-2FD-hFc binding to hTie-2-mFc; conditions: 16.67 nM antibody; 2 nM Ang-2FD-hFc
Procedure: (§1) Tie-2 is a natural receptor for Ang-2. Anti-Ang-2 antibodies were tested for their ability to block Ang-2 binding to human Tie-2 (hTie-2). hTie-2-mFc (a chimeric construct consisting of human Tie-2 conjugated to mouse IgG; SEQ ID NO:525) was coated onto 96-well plates at a concentration of 2 μg/ml and incubated overnight followed by washing four times in wash buffer (PBS with 0.05% Tween-20). The plate was then blocked with PBS (Irvine Scientific, Santa Ana, Calif.) containing 0.5% BSA (Sigma-Aldrich Corp., St. Louis, Mo.) for one hour at room temperature. In a separate plate, purified anti-Ang-2 antibodies, at a starting concentration of 50 nM, were serially diluted by a factor of three across the plate. Human, mouse or monkey Ang-2FD protein conjugated to human IgG (Ang-2FD-hFc) were added to final concentrations of 2 nM, 8 nM, or 2 nM respectively and incubated for one hour at room temperature. The antibody/Ang-2FD-Fc mixture was then added to the plate containing hTie-2-mFc and incubated for one hour at room temperature. Detection of Ang-2FD-hFc bound to hTie-2-mFc protein was determined with Horse-Radish Peroxidase (HRP) conjugated to a-human IgG antibody (Jackson Immuno Research Lab, West Grove, Pa.) and developed by standard colorimetric response using tetramethylbenzidine (TMB) substrate (BD Biosciences, San Jose, Calif.). Absorbance was read at OD450 for 0.1 sec.

[2] = target: T1, Human Ang-2FD-hFc binding to hTie-2-mFc (Homo sapiens, UniProt O15123); experiment: ELISA blocking of human Ang-2FD-hFc binding to hTie-2-mFc; conditions: 16.67 nM antibody; 2 nM Ang-2FD-hFc
T1 sequence (O15123 282-496): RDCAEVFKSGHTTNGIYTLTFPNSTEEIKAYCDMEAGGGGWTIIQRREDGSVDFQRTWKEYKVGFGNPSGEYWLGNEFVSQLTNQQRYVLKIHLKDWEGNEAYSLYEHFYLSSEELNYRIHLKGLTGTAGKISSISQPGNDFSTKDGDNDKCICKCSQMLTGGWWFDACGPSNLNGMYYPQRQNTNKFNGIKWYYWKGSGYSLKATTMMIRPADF
Procedure: as §1

[3] = target: T2, Mouse Ang-2FD-hFc binding to hTie-2-mFc (Mus musculus, UniProt O35608); experiment: ELISA blocking of mouse Ang-2FD-hFc binding to hTie-2-mFc; conditions: 16.67 nM antibody; 8 nM Ang-2FD-hFc
T2 construct: mouse (Mus musculus)
T2 sequence (O35608 282-496): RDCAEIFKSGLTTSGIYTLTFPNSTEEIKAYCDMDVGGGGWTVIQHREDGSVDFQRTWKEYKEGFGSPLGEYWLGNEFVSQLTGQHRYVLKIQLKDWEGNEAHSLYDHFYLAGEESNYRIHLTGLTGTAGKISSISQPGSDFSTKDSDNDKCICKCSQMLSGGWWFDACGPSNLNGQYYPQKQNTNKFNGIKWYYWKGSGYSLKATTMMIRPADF

B1: H1H690P: anti-Ang-2 antibody, HCVR/LCVR SEQ ID NOs 42/44 (antibody, V domains shown)
VH: EVQLVESGGGLVQPGESLRLSCAASGFTFSSYAMSWVRQGPGKGLEWVSSITGSGDTTYYADSVKGRFTISRDNSKNTLYLHMNSLRAEDTAVYYCAKDFLDYSTYLAFDLWGQGTMVTVSS
VL: EIVLTQSPATLSLSPGERATLSCRASQSVSSYLTWYQQKPGQAPRLLSYDASNRATGIPARFSGSGSGTDFTLTISSLEPEDFAVYYCQQRSNWPLTFGGGTKVEIK
greater than 95%: Percent Blocking of Ang-2FD Binding to Tie-2, Monkey Ang-2FD-hFc [1] | Percent Blocking of Ang-2FD Binding to Tie-2, Human Ang-2FD-hFc [2] | Percent Blocking of Ang-2FD Binding to Tie-2, Mouse Ang-2FD-hFc [3]

B2: H1H704P: anti-Ang-2 antibody, HCVR/LCVR SEQ ID NOs 186/188 (antibody, V domains shown)
VH: QVQLVESGGDVVQPGRSLRLSCAASGFTFSSYGMHWVRQAPGKGLEWVAIIWYDGSNKYYADSVKGRFTISRDNSKNTLYLQMNSLRVEDTAVYSCARDFSISSRHFDYWGQGTLVTVSS
VL: DIQMTQSPSSLSASVGDRVTITCRASQAINNYLAWFQQKPGKAPKSLIYATSNLQSGVPSQFSGSGSGTDYTLTISSLQPEDFATYYCQQYYIYPITFGQGTRLEIK
greater than 95%: Percent Blocking of Ang-2FD Binding to Tie-2, Monkey Ang-2FD-hFc [1] | Percent Blocking of Ang-2FD Binding to Tie-2, Human Ang-2FD-hFc [2] | Percent Blocking of Ang-2FD Binding to Tie-2, Mouse Ang-2FD-hFc [3]

B3: H1H724N: anti-Ang-2 antibody (724N) cloned onto human IgG1 (antibody, V domains shown)
VH: QVQLVESGGGVVQPGRSLRLSCAASGFTLSNYGMHWVRQAPGKGLEWVAVIWHDGSNTYYADSVKGRFTISRDNSKNTLYLQMNSLRAEDTAVYYCTREGLDFWSGYYPNWFDPWGQGTLVTVSS
VL: DIQMTQSPSSLSASVGDRVTITCRASQGIRNDLGWYQQKPGKAPKRLIYAASNLQGGVPSRFSGSGSGTEFTLTISSLQPEDFAAYYCLQHNIYPLTFGGGTKVEIK
greater than 95%: Percent Blocking of Ang-2FD Binding to Tie-2, Monkey Ang-2FD-hFc [1] | Percent Blocking of Ang-2FD Binding to Tie-2, Human Ang-2FD-hFc [2] | Percent Blocking of Ang-2FD Binding to Tie-2, Mouse Ang-2FD-hFc [3]

Reference: US9926369B2, “Methods for treating hepatocellular cancer by administering an anti-Ang-2 antibody” (Regeneron Pharmaceuticals, Inc., priority 2009, dated 2018)
